Data taken from publication PMC10754140.
Read-outs that look alike come from different tables or passages of the source. These are yes or no findings as the source states them, for the method shown. Binding seen in cells or lysates may run through a third protein. Some results given as binding are weak or reduced against the parent protein; the word gives no strength. For part of these data: Where a sequence is shown, tags or fusion partners need not be part of it.

Amino acid sequences for entries named in this document (tags omitted).
UniProt Q15154: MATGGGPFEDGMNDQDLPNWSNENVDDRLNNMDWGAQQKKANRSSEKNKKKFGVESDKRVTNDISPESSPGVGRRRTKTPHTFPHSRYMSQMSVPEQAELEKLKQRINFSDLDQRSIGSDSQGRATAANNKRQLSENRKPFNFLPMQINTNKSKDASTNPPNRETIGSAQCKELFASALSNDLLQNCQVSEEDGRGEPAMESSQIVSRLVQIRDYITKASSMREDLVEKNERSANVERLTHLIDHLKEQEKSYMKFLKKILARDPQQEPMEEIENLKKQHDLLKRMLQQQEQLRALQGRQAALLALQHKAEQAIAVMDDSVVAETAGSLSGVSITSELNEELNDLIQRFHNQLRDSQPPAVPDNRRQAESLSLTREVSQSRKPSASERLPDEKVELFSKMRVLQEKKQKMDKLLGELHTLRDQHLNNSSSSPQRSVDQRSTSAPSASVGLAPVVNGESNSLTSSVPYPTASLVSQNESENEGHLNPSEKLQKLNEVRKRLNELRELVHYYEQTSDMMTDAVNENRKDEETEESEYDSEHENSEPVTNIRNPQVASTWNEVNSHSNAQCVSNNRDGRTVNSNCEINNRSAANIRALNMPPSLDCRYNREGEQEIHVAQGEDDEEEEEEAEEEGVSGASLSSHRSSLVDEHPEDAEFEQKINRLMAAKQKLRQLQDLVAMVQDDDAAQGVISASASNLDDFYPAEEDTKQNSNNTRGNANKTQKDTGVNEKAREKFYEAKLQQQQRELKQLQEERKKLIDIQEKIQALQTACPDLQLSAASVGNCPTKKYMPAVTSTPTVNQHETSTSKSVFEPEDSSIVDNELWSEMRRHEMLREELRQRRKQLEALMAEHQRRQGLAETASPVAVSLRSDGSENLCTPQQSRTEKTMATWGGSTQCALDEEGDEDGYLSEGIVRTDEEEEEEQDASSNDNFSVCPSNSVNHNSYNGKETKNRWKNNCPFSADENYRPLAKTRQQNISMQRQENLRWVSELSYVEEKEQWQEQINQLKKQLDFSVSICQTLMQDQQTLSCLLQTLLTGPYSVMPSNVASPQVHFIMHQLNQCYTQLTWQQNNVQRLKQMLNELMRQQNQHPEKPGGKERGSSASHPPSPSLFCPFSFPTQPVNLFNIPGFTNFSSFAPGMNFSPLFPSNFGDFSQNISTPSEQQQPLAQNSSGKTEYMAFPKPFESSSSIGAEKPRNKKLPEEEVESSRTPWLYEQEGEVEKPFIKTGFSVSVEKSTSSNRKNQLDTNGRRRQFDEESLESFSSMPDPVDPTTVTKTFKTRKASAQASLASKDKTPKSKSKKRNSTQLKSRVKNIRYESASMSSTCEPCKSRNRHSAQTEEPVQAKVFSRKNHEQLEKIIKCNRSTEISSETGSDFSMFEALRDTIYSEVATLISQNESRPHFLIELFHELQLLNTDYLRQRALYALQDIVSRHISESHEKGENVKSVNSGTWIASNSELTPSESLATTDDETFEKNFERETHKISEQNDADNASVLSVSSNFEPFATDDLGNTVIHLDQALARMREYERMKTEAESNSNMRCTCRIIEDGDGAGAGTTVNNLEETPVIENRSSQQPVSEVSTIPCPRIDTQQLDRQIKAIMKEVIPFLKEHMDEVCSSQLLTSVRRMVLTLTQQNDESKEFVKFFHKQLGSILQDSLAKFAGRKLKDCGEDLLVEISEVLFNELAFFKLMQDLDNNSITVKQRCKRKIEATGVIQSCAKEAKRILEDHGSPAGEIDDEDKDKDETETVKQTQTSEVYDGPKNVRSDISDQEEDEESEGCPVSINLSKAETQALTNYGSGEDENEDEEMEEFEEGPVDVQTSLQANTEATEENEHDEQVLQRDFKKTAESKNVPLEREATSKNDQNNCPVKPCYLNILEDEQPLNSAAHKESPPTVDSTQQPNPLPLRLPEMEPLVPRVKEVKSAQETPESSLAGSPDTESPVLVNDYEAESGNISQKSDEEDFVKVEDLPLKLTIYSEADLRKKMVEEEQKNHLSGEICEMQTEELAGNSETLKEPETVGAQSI

Assays:
[1] = biological target: T1, OGT, exogenous (GFP‐OGT or HA‐OGT) (UniProt O15294); assay: co-IP; 293T cells transfected with the indicated plasmids; lysis in 20 mM Tris-HCl, 150 mM NaCl, 1 mM EDTA, 1 mM EGTA, 1% NP-40, 2.5 mM sodium pyrophosphate, 10% glycerol, pH 7.5; beads 4 °C 4 h, five washes, immunoblotting
T1 sequence: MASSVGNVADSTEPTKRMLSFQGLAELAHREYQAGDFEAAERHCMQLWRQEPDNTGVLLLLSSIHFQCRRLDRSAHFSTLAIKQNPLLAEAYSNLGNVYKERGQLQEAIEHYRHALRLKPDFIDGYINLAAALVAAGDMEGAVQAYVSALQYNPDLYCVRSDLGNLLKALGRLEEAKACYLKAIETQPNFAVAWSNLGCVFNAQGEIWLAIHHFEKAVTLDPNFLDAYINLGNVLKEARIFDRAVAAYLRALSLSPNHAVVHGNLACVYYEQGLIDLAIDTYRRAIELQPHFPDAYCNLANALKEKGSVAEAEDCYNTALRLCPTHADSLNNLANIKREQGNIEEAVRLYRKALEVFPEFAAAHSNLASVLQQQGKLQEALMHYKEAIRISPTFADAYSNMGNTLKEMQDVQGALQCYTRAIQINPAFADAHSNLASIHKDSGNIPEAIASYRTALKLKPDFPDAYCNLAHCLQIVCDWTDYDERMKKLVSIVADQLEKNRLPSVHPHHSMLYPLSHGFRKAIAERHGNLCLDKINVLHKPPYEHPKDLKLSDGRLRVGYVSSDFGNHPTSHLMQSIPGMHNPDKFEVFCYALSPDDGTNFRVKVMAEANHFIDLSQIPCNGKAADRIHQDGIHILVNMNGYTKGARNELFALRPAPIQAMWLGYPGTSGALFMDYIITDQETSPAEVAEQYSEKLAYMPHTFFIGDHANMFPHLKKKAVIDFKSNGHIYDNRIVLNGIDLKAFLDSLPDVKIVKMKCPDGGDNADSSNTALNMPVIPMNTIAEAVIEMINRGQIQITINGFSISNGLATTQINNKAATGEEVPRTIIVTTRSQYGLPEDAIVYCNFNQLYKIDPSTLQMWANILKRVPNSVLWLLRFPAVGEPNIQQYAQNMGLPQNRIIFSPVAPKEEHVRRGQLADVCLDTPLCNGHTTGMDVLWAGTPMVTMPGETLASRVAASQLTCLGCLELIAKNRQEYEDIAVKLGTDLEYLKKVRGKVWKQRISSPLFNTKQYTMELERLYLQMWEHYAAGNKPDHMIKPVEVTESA

[2] = biological target: T2, O‐GlcNAc transferase (OGT), endogenous (human (endogenous in MCF10A)) (UniProt O15294); assay: co-IP; endogenous proteins; cells and precipitating antibody not stated; immunoprecipitation lysis buffer, Protein A/G beads with primary antibody, 4 °C 4 h
T2 sequence: T1 sequence

[3] = biological target: T1, OGT, exogenous (GFP‐OGT or HA‐OGT); assay: co-IP; 293T cells transfected with the indicated plasmids; lysis in 20 mM Tris-HCl, 150 mM NaCl, 1 mM EDTA, 1 mM EGTA, 1% NP-40, 2.5 mM sodium pyrophosphate, 10% glycerol, pH 7.5; beads 4 °C 4 h, five washes, immunoblotting; remark: listed apart in the source

PCM1, exogenous (HA‐PCM1 or GFP‐PCM1) (from UniProt Q15154 1-2024)
binding [1]: binds

pericentriolar material 1 (PCM1), endogenous (from UniProt Q15154 1-2024)
binding [2]: binds

B1: CEP131, exogenous (Flag‐CEP131 or GFP‐CEP131) (protein, UniProt Q9UPN4 1-1083)
chain: MKGTRAIGSVPERSPAGVDLSLTGLPPPVSRRPGSAATTKPIVRSVSVVTGSEQKRKVLEATGPGGSQAINNLRRSNSTTQVSQPRSGSPRPTEPTDFLMLFEGSPSGKKRPASLSTAPSEKGATWNVLDDQPRGFTLPSNARSSSALDSPAGPRRKECTVALAPNFTANNRSNKGAVGNCVTTMVHNRYTPSERAPPLKSSNQTAPSLNNIIKAATCEGSESSGFGKLPKNVSSATHSARNNTGGSTGLPRRKEVTEEEAERFIHQVNQATVTIQRWYRHQVQRRGAGAARLEHLLQAKREEQRQRSGEGTLLDLHQQKEAARRKAREEKARQARRAAIQELQQKRALRAQKASTAERGPPENPRETRVPGMRQPAQELSPTPGGTAHQALKANNTGGGLPAAGPGDRCLPTSDSSPEPQQPPEDRTQDVLAQDAAGDNLEMMAPSRGSAKSRGPLEELLHTLQLLEKEPDVLPRPRTHHRGRYAWASEVTTEDDASSLTADNLEKFGKLSAFPEPPEDGTLLSEAKLQSIMSFLDEMEKSGQDQLDSQQEGWVPEAGPGPLELGSEVSTSVMRLKLEVEEKKQAMLLLQRALAQQRDLTARRVKETEKALSRQLQRQREHYEATIQRHLAFIDQLIEDKKVLSEKCEAVVAELKQEDQRCTERVAQAQAQHELEIKKLKELMSATEKARREKWISEKTKKIKEVTVRGLEPEIQKLIARHKQEVRRLKSLHEAELLQSDERASQRCLRQAEELREQLEREKEALGQQERERARQRFQQHLEQEQWALQQQRQRLYSEVAEERERLGQQAARQRAELEELRQQLEESSSALTRALRAEFEKGREEQERRHQMELNTLKQQLELERQAWEAGRTRKEEAWLLNREQELREEIRKGRDKEIELVIHRLEADMALAKEESEKAAESRIKRLRDKYEAELSELEQSERKLQERCSELKGQLGEAEGENLRLQGLVRQKERALEDAQAVNEQLSSERSNLAQVIRQEFEDRLAASEEETRQAKAELATLQARQQLELEEVHRRVKTALARKEEAVSSLRTQHEAAVKRADHLEELLEQHRRPTPSTK
binding [3]: binds
